Binding data for three molecules are collected here from publication PMC7395150.

Protein sequences, listed by entry. Tags and fused reporters are not part of them.
UniProt P27169: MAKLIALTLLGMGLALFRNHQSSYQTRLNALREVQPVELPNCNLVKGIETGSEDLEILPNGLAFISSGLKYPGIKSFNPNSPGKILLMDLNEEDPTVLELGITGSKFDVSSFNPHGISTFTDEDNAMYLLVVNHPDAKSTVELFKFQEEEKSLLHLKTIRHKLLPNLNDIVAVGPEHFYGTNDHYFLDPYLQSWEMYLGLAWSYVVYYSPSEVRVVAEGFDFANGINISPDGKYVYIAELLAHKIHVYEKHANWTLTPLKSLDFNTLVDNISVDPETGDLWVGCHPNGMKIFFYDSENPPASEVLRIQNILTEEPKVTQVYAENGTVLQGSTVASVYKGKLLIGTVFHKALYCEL

Results are given in words; binding and its absence hold for the method and conditions named. Binding seen in cells or lysates may run through a third protein. These calls come from enrichment with a bait or labelling near it, and not all partners need be listed.

Assay [1] has as its target T1, Synthetic SPP24 peptide ….
T1 sequence (peptide): VSAQQVQGVHAR
As to the kind of experiment: affinity purification with mass spectrometry; 'primary' binders: as the peptide capture, but captured serum proteins washed (PBS pH 7.4, 0.1% Tween20, then PBS pH 7.4), incubated overnight at room temperature with trypsin 10 µg on the beads, washed repeatedly, released with 0.15% TFA, LC-MS/MS; only the target purified.

The target in assay [2] is Paraoxonase 1 (PON1) (human (endogenous in serum)) (UniProt P27169). Nature of the assay: affinity purification with mass spectrometry; reverse binding: polyclonal PON1 antibody as the bait, capture from serum, eluted proteins digested with trypsin, ESI-LC-MS/MS.
Assay [3] deals with T1, Synthetic SPP24 peptide …. Nature of the assay: affinity purification with mass spectrometry; synthetic SPP24 peptide bound to tosylactivated magnetic beads; pooled whole serum of UC, CD and controls (5 patients each); eluted proteins digested with trypsin, ESI-LC-MS/MS; only the target purified.

Consider “Paraoxonase 1 (PON1) (from UniProt P27169 1-355) (enzyme)”, for which, in assay [1], the binding entry is reported as “binds”.

B1: Secreted phosphoprotein 24 (SPP24) (protein, UniProt Q13103 30-211)
chain: FPVYDYDPSSLRDALSASVVKVNSQSLSPYLFRAFRSSLKRVEVLDENNLVMNLEFSIRETTCRKDSGEDPATCAFQRDYYVSTAVCRSTVKVSAQQVQGVHARCSWSSSTSESYSSEEMIFGDMLGSHKWRNNYLFGLISDESISEQFYDRSLGIMRRVLPPGNRRYPNHRHRARINTDFE
B1: the binding result in assay [2] is “binds”.

B2: α-2-macroglobulin (protein, UniProt P01023 24-1474)
chain: SVSGKPQYMVLVPSLLHTETTEKGCVLLSYLNETVTVSASLESVRGNRSLFTDLEAENDVLHCVAFAVPKSSSNEEVMFLTVQVKGPTQEFKKRTTVMVKNEDSLVFVQTDKSIYKPGQTVKFRVVSMDENFHPLNELIPLVYIQDPKGNRIAQWQSFQLEGGLKQFSFPLSSEPFQGSYKVVVQKKSGGRTEHPFTVEEFVLPKFEVQVTVPKIITILEEEMNVSVCGLYTYGKPVPGHVTVSICRKYSDASDCHGEDSQAFCEKFSGQLNSHGCFYQQVKTKVFQLKRKEYEMKLHTEAQIQEEGTVVELTGRQSSEITRTITKLSFVKVDSHFRQGIPFFGQVRLVDGKGVPIPNKVIFIRGNEANYYSNATTDEHGLVQFSINTTNVMGTSLTVRVNYKDRSPCYGYQWVSEEHEEAHHTAYLVFSPSKSFVHLEPMSHELPCGHTQTVQAHYILNGGTLLGLKKLSFYYLIMAKGGIVRTGTHGLLVKQEDMKGHFSISIPVKSDIAPVARLLIYAVLPTGDVIGDSAKYDVENCLANKVDLSFSPSQSLPASHAHLRVTAAPQSVCALRAVDQSVLLMKPDAELSASSVYNLLPEKDLTGFPGPLNDQDNEDCINRHNVYINGITYTPVSSTNEKDMYSFLEDMGLKAFTNSKIRKPKMCPQLQQYEMHGPEGLRVGFYESDVMGRGHARLVHVEEPHTETVRKYFPETWIWDLVVVNSAGVAEVGVTVPDTITEWKAGAFCLSEDAGLGISSTASLRAFQPFFVELTMPYSVIRGEAFTLKATVLNYLPKCIRVSVQLEASPAFLAVPVEKEQAPHCICANGRQTVSWAVTPKSLGNVNFTVSAEALESQELCGTEVPSVPEHGRKDTVIKPLLVEPEGLEKETTFNSLLCPSGGEVSEELSLKLPPNVVEESARASVSVLGDILGSAMQNTQNLLQMPYGCGEQNMVLFAPNIYVLDYLNETQQLTPEIKSKAIGYLNTGYQRQLNYKHYDGSYSTFGERYGRNQGNTWLTAFVLKTFAQARAYIFIDEAHITQALIWLSQRQKDNGCFRSSGSLLNNAIKGGVEDEVTLSAYITIALLEIPLTVTHPVVRNALFCLESAWKTAQEGDHGSHVYTKALLAYAFALAGNQDKRKEVLKSLNEEAVKKDNSVHWERPQKPKAPVGHFYEPQAPSAEVEMTSYVLLAYLTAQPAPTSEDLTSATNIVKWITKQQNAQGGFSSTQDTVVALHALSKYGAATFTRTGKAAQVTIQSSGTFSSKFQVDNNNRLLLQQVSLPELPGEYSMKVTGEGCVYLQTSLKYNILPEKEEFPFALGVQTLPQTCDEPKAHTSFQISLSVSYTGSRSASNMAIVDVKMVSGFIPLKPTVKMLERSNHVSRTEVSSNHVLIYLDKVSNQTLSLFFTVLQDVPVRDLKPAIVKVYDYYETDEFAIAEYNAPCSKDLGNA
Turning to B2, the binding entry in assay [3] was “binds”.
